Article PMC6614837 (Nucleic Acids Research, 2019)

Biological target: T1, RNase P protein (TmP, P protein) (Thermotoga maritima) (UniProt Q9X1H4)
T1 sequence (looked up, limits assumed): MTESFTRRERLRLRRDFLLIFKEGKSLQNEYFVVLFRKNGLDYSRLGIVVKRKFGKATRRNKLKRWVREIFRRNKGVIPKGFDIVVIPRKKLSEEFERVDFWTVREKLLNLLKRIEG
Assay: BLI
Conditions: 5 uM leader, BLI (Octet RED96): 20 mM HEPES pH 7.4, 100 mM ammonium acetate, 10 mM MgCl2, 2.5-5% DMSO, 30 C, P protein:P RNA in 33 mM Tris, 66.6 mM HEPES, 200 mM ammonium acetate, recombinant protein, protein details: N-terminal His6 (GST fusion cleaved with TEV)

## GGAAAAAGAU [5' RNA leader (10 nt)]
100 uM hematein
  binding result: binds more weakly
100 uM purpurin
  binding result: binds more weakly

Construct, isoform or probe ends are uncertain for at least one entry. Weaker means in comparison with the reference protein, sequence or condition of that experiment. Where a protein sequence is shown, tags need not be part of it.
